The source of these data is PMC9363421.

Protein sequences, listed by entry. Tags and fused reporters are not part of them. Lines headed by an entry give the natural chain unless they say otherwise; changes in a name come on top.
UniProt Q06210: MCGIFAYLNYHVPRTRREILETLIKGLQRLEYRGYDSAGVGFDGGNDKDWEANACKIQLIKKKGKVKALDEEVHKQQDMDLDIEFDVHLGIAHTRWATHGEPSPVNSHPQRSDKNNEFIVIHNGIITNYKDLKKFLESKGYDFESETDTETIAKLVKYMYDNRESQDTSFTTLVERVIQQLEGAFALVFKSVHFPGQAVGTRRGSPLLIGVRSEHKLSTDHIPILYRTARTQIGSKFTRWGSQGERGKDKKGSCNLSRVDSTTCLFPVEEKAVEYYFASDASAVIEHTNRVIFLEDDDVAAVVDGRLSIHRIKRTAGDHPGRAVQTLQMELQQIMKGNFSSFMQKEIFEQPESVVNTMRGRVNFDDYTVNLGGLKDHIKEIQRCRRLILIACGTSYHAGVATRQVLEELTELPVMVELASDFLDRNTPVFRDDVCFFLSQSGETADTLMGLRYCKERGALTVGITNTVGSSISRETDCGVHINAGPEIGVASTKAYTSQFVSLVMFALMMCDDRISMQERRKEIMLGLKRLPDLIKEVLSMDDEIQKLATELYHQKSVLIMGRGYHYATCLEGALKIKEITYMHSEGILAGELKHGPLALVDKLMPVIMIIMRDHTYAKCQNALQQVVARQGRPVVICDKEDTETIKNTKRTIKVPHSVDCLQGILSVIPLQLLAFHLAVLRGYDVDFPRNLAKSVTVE

Results are given in words; binding and its absence hold for the method and conditions named. Binding seen in cells or lysates may run through a third protein. Binding calls can cover weak binding; strength is not graded here. For part of these data: Sequences can lack the tags named with a protein.

In assay [1] the target is T1, TAB1-S423A, transiently expressed (human) (UniProt Q15750).
T1 sequence: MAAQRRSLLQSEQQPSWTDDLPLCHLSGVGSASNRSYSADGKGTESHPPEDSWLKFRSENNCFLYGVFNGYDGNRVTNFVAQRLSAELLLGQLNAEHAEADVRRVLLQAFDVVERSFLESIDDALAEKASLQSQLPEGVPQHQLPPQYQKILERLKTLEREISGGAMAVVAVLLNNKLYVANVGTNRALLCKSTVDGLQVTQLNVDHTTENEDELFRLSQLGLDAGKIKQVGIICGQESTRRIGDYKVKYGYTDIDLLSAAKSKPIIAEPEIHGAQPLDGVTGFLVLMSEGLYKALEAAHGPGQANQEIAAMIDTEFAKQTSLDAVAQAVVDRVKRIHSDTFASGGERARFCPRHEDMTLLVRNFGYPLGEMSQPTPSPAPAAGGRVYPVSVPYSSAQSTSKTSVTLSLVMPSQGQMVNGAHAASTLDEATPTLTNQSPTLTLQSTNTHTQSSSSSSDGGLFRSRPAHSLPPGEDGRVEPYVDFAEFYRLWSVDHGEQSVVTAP
Kind of assay: co-IP; A549 cells with transient expression of WT TAB1 or TAB1 mutants, 8 h glucose deprivation; immunoprecipitation and immunoblotting.

The target in assay [2] is T2, TAB1-T431A, transiently expressed (human) (UniProt Q15750).
T2 sequence: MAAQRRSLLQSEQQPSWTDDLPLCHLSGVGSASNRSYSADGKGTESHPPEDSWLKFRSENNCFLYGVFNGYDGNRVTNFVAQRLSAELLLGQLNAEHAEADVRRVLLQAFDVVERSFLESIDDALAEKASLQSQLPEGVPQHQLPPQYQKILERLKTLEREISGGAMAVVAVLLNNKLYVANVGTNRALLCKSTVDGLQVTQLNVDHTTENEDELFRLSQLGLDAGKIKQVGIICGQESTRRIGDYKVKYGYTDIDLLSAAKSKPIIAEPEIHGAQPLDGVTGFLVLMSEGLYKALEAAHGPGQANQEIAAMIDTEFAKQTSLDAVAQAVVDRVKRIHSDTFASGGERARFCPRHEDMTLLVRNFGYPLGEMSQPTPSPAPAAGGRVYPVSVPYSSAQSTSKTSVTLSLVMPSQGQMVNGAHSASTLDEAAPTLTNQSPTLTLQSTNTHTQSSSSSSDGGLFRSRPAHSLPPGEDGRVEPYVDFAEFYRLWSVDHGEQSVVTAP
The description is as above.

Assay [3] deals with T3, HA-rTAB1-S438D (human) (UniProt Q15750).
T3 sequence: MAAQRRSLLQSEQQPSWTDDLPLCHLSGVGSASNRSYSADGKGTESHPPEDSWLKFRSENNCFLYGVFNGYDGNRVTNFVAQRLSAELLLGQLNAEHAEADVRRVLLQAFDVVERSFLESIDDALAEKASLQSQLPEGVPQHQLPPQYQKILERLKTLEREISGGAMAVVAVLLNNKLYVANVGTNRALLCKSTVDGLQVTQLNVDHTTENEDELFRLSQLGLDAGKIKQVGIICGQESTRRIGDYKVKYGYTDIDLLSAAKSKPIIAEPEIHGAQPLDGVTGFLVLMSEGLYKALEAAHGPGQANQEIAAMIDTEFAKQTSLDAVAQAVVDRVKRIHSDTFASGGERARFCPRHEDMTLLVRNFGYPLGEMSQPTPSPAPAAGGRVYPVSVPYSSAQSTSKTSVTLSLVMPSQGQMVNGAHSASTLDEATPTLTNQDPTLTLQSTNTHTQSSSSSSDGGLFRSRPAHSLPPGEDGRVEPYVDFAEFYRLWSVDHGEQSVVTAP
In words: co-IP; A549 (and H1299) cells with depleted TAB1 and reconstituted rTAB1 WT or mutants, basal or 8 h glucose deprivation (also with CoCl2 10 μM or exogenous glutamate); immunoprecipitation (anti-HA) and immunoblotting.

Assay [4] concerns the target GST-GFAT1 (human) (UniProt Q06210). Kind of assay: pull-down; purified GST-GFAT1 mixed with lysates of A549 cells cultured 8 h under glucose deprivation; immunoblotting; only the target purified.
The target in assay [5] is Flag-GFAT1 (glutamine-fructose-6-phosphate amidotransferase 1) (human) (UniProt Q06210). Kind of assay: co-IP; Flag-GFAT1 immunoprecipitation from A549 cells with stable expression, with or without 8 h glucose deprivation; immunoblotting.
For assay [6], the target named is glutamine-fructose-6-phosphate amidotransferase 1 (GFAT1), endogenous (human (endogenous in A549 and H1299)) (UniProt Q06210). In words: co-IP; endogenous proteins, A549 and H1299 lysates, 8 h glucose deprivation; lysis buffer 50 mM Tris-HCl pH 7.4, 150 mM NaCl, 1 mM EDTA, 1% NP-40, 1% sodium deoxycholate, 0.1% SDS; antibody and protein G beads overnight at 4 °C; cells also with single kinase inhibitors, TAB1 depletion, rTAB1 or rGFAT1 reconstitution, glutamine deprivation, exogenous glutamate or GlcN, CoCl2.

“glutamine-fructose-6-phosphate amidotransferase 1 (GFAT1), endogenous (from UniProt Q06210-2) (enzyme)”: the binding entry in assay [1], in assay [2] and in assay [3] was “binds” throughout.

B1: transforming growth factor β-activated kinase 1 binding protein 1 (TAB1), endogenous (protein, UniProt Q15750 1-504)
chain: MAAQRRSLLQSEQQPSWTDDLPLCHLSGVGSASNRSYSADGKGTESHPPEDSWLKFRSENNCFLYGVFNGYDGNRVTNFVAQRLSAELLLGQLNAEHAEADVRRVLLQAFDVVERSFLESIDDALAEKASLQSQLPEGVPQHQLPPQYQKILERLKTLEREISGGAMAVVAVLLNNKLYVANVGTNRALLCKSTVDGLQVTQLNVDHTTENEDELFRLSQLGLDAGKIKQVGIICGQESTRRIGDYKVKYGYTDIDLLSAAKSKPIIAEPEIHGAQPLDGVTGFLVLMSEGLYKALEAAHGPGQANQEIAAMIDTEFAKQTSLDAVAQAVVDRVKRIHSDTFASGGERARFCPRHEDMTLLVRNFGYPLGEMSQPTPSPAPAAGGRVYPVSVPYSSAQSTSKTSVTLSLVMPSQGQMVNGAHSASTLDEATPTLTNQSPTLTLQSTNTHTQSSSSSSDGGLFRSRPAHSLPPGEDGRVEPYVDFAEFYRLWSVDHGEQSVVTAP
For B1, in assay [4], the binding result is “binds”.

B2: TTLL5, endogenous (enzyme, UniProt Q6EMB2 1-1281)
chain: MPIVMARDLEETASSSEDEEVISQEDHPCIMWTGGCRRIPVLVFHADAILTKDNNIRVIGERYHLSYKIVRTDSRLVRSILTAHGFHEVHPSSTDYNLMWTGSHLKPFLLRTLSEAQKVNHFPRSYELTRKDRLYKNIIRMQHTHGFKAFHILPQTFLLPAEYAEFCNSYSKDRGPWIVKPVASSRGRGVYLINNPNQISLEENILVSRYINNPLLIDDFKFDVRLYVLVTSYDPLVIYLYEEGLARFATVRYDQGAKNIRNQFMHLTNYSVNKKSGDYVSCDDPEVEDYGNKWSMSAMLRYLKQEGRDTTALMAHVEDLIIKTIISAELAIATACKTFVPHRSSCFELYGFDVLIDSTLKPWLLEVNLSPSLACDAPLDLKIKASMISDMFTVVGFVCQDPAQRASTRPIYPTFESSRRNPFQKPQRCRPLSASDAEMKNLVGSAREKGPGKLGGSVLGLSMEEIKVLRRVKEENDRRGGFIRIFPTSETWEIYGSYLEHKTSMNYMLATRLFQDRMTADGAPELKIESLNSKAKLHAALYERKLLSLEVRKRRRRSSRLRAMRPKYPVITQPAEMNVKTETESEEEEEVALDNEDEEQEASQEESAGFLRENQAKYTPSLTALVENTPKENSMKVREWNNKGGHCCKLETQELEPKFNLMQILQDNGNLSKMQARIAFSAYLQHVQIRLMKDSGGQTFSASWAAKEDEQMELVVRFLKRASNNLQHSLRMVLPSRRLALLERRRILAHQLGDFIIVYNKETEQMAEKKSKKKVEEEEEDGVNMENFQEFIRQASEAELEEVLTFYTQKNKSASVFLGTHSKISKNNNNYSDSGAKGDHPETIMEEVKIKPPKQQQTTEIHSDKLSRFTTSAEKEAKLVYSNSSSGPTATLQKIPNTHLSSVTTSDLSPGPCHHSSLSQIPSAIPSMPHQPTILLNTVSASASPCLHPGAQNIPSPTGLPRCRSGSHTIGPFSSFQSAAHIYSQKLSRPSSAKAGSCYLNKHHSGIAKTQKEGEDASLYSKRYNQSMVTAELQRLAEKQAARQYSPSSHINLLTQQVTNLNLATGIINRSSASAPPTLRPIISPSGPTWSTQSDPQAPENHSSSPGSRSLQTGGFAWEGEVENNVYSQATGVVPQHKYHPTAGSYQLQFALQQLEQQKLQSRQLLDQSRARHQAIFGSQTLPNSNLWTMNNGAGCRISSATASGQKPTTLPQKVVPPPSSCASLVPKPPPNHEQVLRRATSQKASKGSSAEGQLNGLQSSLNPAAFVPITSSTDPAHTKI
B2: the binding entry in assay [5] and in assay [6] was “binds” each time.
